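Viability assay of Plasmodium falciparum sporozoites; the read-out is not stated. The concentration is filed as 10 mM, unlikely as a test dose, so the dose is not known. The record gives no direction; compounds that gave an IC50 in retests scored well above the rest, so higher reads as lower viability. Strong results were mostly tested again. About 34,000 compounds were tested under these conditions; 0.84% (about 280) showed 50% or more at least once.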

Results are given as percent effect. The record does not define 0% and 100%; most values in the screen are far below 50% and negative numbers occur (in some assays of this library far below -100). Compounds were drawn at random from those tested, without regard to their results. Two or more numbers in one place are separate tests of the same structure; such repeats can differ widely.

SMILES	Percent Effect
O=C(c1sccc1Br)N1CCOCC1	-2.964%
c1ccc(Cn2cccn2)c(CN2CCC3(CCCNC3)C2)c1 (stereo not drawn)	-8.86%
CC(Cn1ccnc1)NC(=O)NCCc1ccccn1 (stereo not drawn)	13.85%
CN1C(=O)CC(c2ccccc2)C12CCN(c1ncc(F)cn1)CC2 (stereo not drawn)	-2.3%
Cc1ccc(C(=O)N2CCc3c(CNc4ncccn4)cncc3C2)o1.Cl	11.47%
CN1Cc2cc(F)ccc2N(CC(O)C(F)(F)F)CCC1=O (stereo not drawn)	-51.5%
O=c1n(CCSCc2ccccc2Br)nc2ccccn12	-5.797%
CCOCC1CN(C(=O)N2CCCC2)Cc2cnn(CC)c21 (stereo not drawn)	-12.49%
CNC(=O)Nc1cc(-c2ccccc2C)nn1CCO	2.593%
CCn1c(SCC(=O)N2CCOCC2)nc2cc(C)[nH]c2c1=O	14.62%
O=C(NCCNc1ncccn1)N1CCCC1	12.23%
C[C@@H]1CN(c2nc(N)nc3c2CCC3)C[C@]1(C)O	3.567%
[H][C@]12CCN(C(=O)Nc3ccccc3C)CC[C@@]1([H])S(=O)(=O)N(C)C2	-0.6843%
Cc1nc(-c2ccccc2)sc1CNC1CCc2ncnn2C1 (stereo not drawn)	0.9759%
O=C(O)C(F)(F)F.O=C(O)C(F)(F)F.O=C(O)c1c(-c2ccncc2)ncc2c1CCN(CC1CCOC1)C2 (stereo not drawn)	1.013%
CNC(=O)c1cccc(CN2CCC(N(C)Cc3noc(C)n3)C2)c1 (stereo not drawn)	-14.38%
CC(C)N(Cc1nc(-c2cccs2)no1)CC1CCC(=O)N1 (stereo not drawn)	3.846%
[H][C@@]12CN(C(=O)N3CCOCC3)C[C@@]1([H])N(CC(C)C)C(=O)CO2	-11.17% and -6.35%
CN(Cc1ccc(C#N)cc1)C(=O)c1ccn(C)c(=O)c1	4.931%
Cc1nc(CNC(=O)N2CCN(c3ccc(Cl)cn3)CC2)no1	11.08%
O=C(O)CCc1cccc(C2CCCN2Cc2ccc(F)c(F)c2)n1 (stereo not drawn)	-11.49%
O=C(NCc1cnc2n1CCN(CC1CC1)CC2)C1CCC1	-14.07%
COc1cccc2ccn(CC(=O)NC(C)C)c12	-16.01% and -8.665%
FC1(F)CCN(Cc2cccnc2)CC12CCN(c1cnccn1)C2.O=C(O)C(F)(F)F.O=C(O)C(F)(F)F.O=C(O)C(F)(F)F (stereo not drawn)	9.579%
CN(Cc1ccco1)C1CCC12CCN(C(=O)N1CCCC1)CC2.O=C(O)C(F)(F)F (stereo not drawn)	8.383%
Cc1ccc(F)c(NCc2ccc(C(=O)N(C)C)[nH]2)c1	-2.216%
O=C(c1ccnnc1)N1CCC2(CC1)CN(c1ccccn1)CCO2	-2.973%
CC(NC(=O)CCC(=O)c1cccs1)c1nnc2n1CCC2 (stereo not drawn)	-0.7356%
COc1ccc(-c2noc(-c3ccc(N4CCC[C@H]4CO)nc3)n2)cc1	49.77% and 66.78% and 41.57%
COc1ccc(Cl)cc1C(=O)NCc1cnn(C)c1C	4.412%
O=C(O)C(F)(F)F.O=C1CC[C@]2(CC[C@@H](NCc3ccoc3)CC2)N1	1.882%
O=C(O)C(F)(F)F.O=C(c1cscn1)N1CCc2ncc(CN3CCCC3)n2CC1	4.174%
COc1cc(N2CCC3(CCCN(Cc4ccccn4)C3)C2)ncn1.O=C(O)C(F)(F)F (stereo not drawn)	21.37%
O=C(C1CC1)N1CCC2(CC1)COCCN2Cc1ccc(F)cc1.O=C(O)C(F)(F)F	-11.3%
CC(=O)N[C@@H]1CN(S(=O)(=O)c2ccc(Cl)cc2)C[C@H]1O	-6.619%
O=C(c1cc(F)ccc1F)C1CCN(C(=O)c2cccnc2O)CC1	-11.33%
CNc1cc(C2CN(C(=O)c3cscn3)CCO2)nc(C)n1 (stereo not drawn)	13.5%
CCS(=O)(=O)N(C)CC(=O)Nc1ccc(Br)cn1	-10.54%
CN(C)CCn1c2c(ccc1=O)CC(NC(=O)c1ccsc1)CC2.O=C(O)C(F)(F)F (stereo not drawn)	-4.506%
[H][C@@]12C[C@H](C(=O)NCc3ccccc3)[C@@]([H])(CN(C(=O)NC3CCCC3)C1)O2	13.38%
CCOc1ccccc1C(=O)N1CC(=O)N(C2CCC2)CC(O)C1 (stereo not drawn)	-43.6%
Cc1cc(C(=O)N2CCC3(CCN3Cc3ccc(F)cc3)C2)no1.O=C(O)C(F)(F)F (stereo not drawn)	2.737%
NC(=O)c1cc(CC2CCCN(c3cnccn3)C2)ncn1 (stereo not drawn)	10.98%
Cc1nn(C)c(C)c1CNC1CCOc2ccccc21 (stereo not drawn)	33.39% and 34.83% and 33.2%
Cc1cc(C(=O)N2CCCN(Cc3nccn3C(C)C)CC2)no1	-206.7%
[H][C@@]12CN(Cc3nccs3)C[C@H](C(=O)N3CCCC3)[C@]1([H])CCO2	-4.774%
CCCNC(=O)c1nn(CC)cc1NC(=O)c1cn(C)nc1C	3.748% and 5.399%
CCn1ncc2c1CCCC2NCc1cc(C)ccc1OC (stereo not drawn)	-2.136%
CCN1CCC2(CN(C(C)=O)CC23CCN(CC2CC2)CC3)C1=O.O=C(O)C(F)(F)F (stereo not drawn)	4.619%
CNc1cc(C)nc(N2C[C@H](C3CC3)[C@@H](N)C2)n1	11.54% and 8.166% and -2.157%
CN(CCC(F)(F)F)C(=O)c1nc(S(C)(=O)=O)n2ccccc12	10.84%

For reference, 4 entries once more:

| SMILES | Percent Effect |
|---|---|
| `CC(NC(=O)CCC(=O)c1cccs1)c1nnc2n1CCC2` (stereo not drawn) | -0.7356% |
| `O=C(C1CC1)N1CCC2(CC1)COCCN2Cc1ccc(F)cc1.O=C(O)C(F)(F)F` | -11.3% |
| `CCn1c(SCC(=O)N2CCOCC2)nc2cc(C)[nH]c2c1=O` | 14.62% |
| `Cc1nn(C)c(C)c1CNC1CCOc2ccccc21` (stereo not drawn) | 33.39% and 34.83% and 33.2% |

Source: ChEMBL document CHEMBL3988442, “University of Dundee, Small-Polar-MMV Screening Library” (2021).